Results taken from the supplement of paper PMC10849652.
This is one part of the list.

Protein sequences, listed by entry. Tags and fused reporters are not part of them. Lines headed by an entry give the natural chain unless they say otherwise; changes in a name come on top.
UniProt P21333, whole entry, looked up: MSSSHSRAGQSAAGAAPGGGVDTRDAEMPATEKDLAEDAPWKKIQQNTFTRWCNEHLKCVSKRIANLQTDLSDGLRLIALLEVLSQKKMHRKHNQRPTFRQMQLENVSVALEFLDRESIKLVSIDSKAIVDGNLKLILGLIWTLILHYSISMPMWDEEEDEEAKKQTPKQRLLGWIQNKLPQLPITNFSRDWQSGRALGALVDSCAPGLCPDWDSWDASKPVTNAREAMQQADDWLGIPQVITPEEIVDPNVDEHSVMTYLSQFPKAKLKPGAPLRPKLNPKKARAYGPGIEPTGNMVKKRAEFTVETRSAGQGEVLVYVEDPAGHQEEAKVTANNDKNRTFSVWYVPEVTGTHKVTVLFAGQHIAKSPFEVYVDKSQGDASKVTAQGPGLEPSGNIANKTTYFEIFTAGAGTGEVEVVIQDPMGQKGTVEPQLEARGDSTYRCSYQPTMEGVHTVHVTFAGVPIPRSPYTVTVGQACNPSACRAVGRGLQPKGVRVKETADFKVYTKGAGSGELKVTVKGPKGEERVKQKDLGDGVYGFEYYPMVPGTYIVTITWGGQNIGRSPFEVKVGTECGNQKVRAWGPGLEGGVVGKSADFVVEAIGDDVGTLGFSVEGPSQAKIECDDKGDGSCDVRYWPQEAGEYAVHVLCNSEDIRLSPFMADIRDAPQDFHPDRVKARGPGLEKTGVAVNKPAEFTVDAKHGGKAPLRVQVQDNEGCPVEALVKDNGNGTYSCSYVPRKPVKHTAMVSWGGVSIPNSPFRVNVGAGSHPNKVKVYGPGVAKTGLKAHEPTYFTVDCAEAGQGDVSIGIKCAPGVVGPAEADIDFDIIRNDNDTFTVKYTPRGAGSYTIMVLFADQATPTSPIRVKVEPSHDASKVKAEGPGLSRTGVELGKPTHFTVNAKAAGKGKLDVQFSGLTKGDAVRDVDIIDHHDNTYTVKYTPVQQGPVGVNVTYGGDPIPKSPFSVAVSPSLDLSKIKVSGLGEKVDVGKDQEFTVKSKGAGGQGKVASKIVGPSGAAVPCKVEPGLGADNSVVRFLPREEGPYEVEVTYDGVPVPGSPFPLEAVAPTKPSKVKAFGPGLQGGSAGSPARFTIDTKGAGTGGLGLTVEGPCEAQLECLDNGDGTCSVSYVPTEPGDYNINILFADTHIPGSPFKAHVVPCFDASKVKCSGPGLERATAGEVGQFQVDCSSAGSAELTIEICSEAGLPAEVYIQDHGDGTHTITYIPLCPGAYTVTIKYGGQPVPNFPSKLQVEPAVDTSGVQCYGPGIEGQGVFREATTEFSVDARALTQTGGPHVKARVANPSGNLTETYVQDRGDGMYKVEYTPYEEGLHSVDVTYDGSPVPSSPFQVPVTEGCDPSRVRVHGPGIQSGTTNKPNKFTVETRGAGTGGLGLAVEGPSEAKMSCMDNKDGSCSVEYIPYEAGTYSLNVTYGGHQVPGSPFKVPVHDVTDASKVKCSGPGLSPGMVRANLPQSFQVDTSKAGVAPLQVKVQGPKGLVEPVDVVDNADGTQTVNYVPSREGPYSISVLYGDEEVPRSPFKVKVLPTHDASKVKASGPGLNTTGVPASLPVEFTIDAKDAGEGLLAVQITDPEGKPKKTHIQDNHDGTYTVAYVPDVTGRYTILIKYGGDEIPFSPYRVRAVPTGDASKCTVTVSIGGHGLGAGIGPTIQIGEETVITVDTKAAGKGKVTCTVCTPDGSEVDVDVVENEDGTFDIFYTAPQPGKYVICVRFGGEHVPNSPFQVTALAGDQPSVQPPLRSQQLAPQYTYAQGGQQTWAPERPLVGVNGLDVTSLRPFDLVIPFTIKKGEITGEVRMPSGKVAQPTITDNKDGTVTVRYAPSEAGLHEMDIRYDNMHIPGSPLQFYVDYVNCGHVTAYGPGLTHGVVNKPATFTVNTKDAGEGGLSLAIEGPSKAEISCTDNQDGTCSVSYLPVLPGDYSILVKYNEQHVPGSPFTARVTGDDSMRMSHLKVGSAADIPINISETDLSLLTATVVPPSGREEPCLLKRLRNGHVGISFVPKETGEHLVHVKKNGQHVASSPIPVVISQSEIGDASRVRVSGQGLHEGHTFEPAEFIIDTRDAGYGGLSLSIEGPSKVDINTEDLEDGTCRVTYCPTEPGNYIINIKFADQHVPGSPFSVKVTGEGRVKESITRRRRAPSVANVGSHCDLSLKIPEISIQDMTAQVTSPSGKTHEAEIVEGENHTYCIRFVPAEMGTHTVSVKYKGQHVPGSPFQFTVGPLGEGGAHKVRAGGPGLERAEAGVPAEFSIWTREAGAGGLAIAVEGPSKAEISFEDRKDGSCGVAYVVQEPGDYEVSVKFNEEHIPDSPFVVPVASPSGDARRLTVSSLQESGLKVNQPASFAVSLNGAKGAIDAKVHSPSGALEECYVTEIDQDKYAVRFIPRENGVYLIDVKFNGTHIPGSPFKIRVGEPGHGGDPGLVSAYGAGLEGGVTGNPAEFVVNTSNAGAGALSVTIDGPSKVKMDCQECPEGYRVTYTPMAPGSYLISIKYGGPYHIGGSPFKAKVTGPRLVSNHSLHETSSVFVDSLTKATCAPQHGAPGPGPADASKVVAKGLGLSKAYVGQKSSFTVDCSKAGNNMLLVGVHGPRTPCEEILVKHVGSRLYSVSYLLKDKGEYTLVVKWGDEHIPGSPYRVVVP
UniProt Q9NYY8: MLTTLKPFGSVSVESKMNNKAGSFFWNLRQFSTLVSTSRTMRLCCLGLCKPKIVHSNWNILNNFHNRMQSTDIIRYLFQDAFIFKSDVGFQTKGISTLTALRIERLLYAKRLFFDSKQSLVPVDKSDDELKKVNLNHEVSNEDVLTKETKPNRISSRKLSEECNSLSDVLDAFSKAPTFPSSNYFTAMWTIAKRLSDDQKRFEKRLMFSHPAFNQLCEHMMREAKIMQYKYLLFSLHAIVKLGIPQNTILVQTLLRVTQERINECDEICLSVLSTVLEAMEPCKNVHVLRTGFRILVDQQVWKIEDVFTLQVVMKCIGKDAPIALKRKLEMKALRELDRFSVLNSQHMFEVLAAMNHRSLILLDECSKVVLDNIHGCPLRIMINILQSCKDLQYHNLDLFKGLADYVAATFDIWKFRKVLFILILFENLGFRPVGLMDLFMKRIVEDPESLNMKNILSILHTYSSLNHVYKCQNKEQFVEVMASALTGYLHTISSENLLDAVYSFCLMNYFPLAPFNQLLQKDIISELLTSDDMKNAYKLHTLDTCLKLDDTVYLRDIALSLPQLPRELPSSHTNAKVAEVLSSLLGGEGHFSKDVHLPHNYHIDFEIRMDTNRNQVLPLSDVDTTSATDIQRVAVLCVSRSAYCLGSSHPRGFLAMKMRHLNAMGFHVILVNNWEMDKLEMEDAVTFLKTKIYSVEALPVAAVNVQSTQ
UniProt Q8NFZ0: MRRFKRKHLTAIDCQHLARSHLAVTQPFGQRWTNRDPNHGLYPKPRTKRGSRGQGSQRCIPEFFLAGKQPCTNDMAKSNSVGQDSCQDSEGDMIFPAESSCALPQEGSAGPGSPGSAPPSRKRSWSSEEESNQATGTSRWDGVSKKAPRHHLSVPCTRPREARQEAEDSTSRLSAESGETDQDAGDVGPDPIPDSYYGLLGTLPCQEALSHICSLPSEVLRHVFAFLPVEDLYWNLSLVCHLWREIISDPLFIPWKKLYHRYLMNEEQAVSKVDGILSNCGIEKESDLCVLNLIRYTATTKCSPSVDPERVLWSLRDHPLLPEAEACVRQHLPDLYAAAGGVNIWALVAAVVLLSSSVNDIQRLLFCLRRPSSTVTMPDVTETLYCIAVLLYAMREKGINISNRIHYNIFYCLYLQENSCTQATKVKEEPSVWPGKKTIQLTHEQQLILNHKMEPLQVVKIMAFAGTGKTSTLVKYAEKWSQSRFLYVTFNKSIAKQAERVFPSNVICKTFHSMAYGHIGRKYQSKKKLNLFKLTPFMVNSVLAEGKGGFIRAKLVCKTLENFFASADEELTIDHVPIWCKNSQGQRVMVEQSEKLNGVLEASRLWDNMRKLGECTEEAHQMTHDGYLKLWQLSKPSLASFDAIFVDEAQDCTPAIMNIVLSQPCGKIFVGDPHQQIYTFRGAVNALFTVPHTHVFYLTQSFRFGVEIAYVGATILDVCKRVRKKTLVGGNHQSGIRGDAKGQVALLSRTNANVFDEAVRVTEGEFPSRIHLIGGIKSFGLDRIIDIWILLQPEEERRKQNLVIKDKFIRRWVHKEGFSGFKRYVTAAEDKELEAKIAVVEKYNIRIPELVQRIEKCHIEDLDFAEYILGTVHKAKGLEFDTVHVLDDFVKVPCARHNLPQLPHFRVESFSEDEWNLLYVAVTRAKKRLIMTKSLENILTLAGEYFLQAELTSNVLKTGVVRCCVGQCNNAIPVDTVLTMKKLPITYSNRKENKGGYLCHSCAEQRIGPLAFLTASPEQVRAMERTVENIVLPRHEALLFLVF
UniProt Q14320: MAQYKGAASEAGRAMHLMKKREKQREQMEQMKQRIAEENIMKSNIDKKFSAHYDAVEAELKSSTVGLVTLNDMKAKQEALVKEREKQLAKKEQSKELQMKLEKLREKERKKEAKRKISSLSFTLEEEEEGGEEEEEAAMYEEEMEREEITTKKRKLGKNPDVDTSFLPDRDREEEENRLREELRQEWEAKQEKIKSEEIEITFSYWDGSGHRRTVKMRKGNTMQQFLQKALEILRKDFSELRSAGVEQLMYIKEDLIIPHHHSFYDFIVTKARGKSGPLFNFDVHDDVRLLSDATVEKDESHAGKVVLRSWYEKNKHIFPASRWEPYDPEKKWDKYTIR
UniProt Q5T1M5: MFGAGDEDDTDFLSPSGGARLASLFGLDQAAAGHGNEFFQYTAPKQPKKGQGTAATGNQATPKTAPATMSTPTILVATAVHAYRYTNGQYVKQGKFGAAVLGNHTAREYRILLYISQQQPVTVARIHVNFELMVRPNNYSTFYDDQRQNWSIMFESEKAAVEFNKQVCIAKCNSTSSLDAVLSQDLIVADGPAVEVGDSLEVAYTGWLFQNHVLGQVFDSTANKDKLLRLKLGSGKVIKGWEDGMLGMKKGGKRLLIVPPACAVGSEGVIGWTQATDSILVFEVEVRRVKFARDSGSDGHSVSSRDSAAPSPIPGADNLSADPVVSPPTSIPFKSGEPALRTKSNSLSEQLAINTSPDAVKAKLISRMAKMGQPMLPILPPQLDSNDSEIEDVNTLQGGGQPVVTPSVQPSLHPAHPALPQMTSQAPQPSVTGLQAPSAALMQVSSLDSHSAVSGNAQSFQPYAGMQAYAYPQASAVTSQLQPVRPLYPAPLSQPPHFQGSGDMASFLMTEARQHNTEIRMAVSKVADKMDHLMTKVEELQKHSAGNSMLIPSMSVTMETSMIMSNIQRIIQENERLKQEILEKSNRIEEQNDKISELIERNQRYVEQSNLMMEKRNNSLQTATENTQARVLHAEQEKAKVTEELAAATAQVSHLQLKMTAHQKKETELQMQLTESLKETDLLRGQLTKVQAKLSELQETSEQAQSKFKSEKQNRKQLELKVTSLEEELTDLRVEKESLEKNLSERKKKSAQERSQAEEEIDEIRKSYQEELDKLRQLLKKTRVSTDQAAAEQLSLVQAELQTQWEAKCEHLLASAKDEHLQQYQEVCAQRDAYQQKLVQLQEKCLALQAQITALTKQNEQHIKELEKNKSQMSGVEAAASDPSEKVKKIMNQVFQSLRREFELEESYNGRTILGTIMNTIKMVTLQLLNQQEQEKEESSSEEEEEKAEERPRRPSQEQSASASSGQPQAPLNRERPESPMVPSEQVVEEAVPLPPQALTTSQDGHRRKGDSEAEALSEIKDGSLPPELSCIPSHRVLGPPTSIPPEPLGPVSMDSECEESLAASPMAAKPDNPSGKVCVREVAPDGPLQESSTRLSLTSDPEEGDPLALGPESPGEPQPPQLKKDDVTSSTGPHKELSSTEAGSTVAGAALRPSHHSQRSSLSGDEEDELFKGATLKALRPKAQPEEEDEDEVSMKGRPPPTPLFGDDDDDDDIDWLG
UniProt P62942, whole entry, looked up: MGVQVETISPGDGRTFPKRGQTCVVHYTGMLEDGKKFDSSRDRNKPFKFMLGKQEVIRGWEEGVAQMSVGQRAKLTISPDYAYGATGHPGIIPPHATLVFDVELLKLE
UniProt O95363: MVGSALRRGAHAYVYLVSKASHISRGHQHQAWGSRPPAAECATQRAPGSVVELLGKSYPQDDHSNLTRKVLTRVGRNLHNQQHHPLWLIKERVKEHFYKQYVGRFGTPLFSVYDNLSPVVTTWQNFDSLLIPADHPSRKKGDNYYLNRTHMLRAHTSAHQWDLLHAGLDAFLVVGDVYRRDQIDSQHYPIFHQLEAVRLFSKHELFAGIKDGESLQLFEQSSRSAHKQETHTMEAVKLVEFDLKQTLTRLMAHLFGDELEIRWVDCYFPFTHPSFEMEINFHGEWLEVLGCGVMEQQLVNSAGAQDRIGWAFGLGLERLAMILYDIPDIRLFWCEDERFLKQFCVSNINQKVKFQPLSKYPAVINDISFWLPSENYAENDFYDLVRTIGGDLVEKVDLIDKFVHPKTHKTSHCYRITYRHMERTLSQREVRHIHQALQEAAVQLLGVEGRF

Assays:
Assay in all cases: log2 fold change, soluble protein after heating vs DMSO (PISA); higher = thermal stabilisation; K562 cells, 10 uM, 30 min; active = over 0.2 and 3.5 SD of the protein, either way, in both replicates (recomputed)
[1] = compound: CC[C@@H]1C(=O)N(C)c2cnc(Nc3ccc(C(=O)NC4CCN(C)CC4)cc3OC)nc2N1C1CCCC1
Method in brief: (§1)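 K562 cells at 2×10^6 cells/mL were exposed to 10 μM compound for 30 min, then aliquots were heated for 3 min across 48°C-58°C, pooled, and extracted in PBS containing 0.5% NP-40 at 4°C. The supernatant after 21,000xg for 90 min was taken as soluble protein and measured by TMTpro 16plex LC-MS/MS with channel sums equalised. Thermal stability is reported relative to control samples, with values from duplicates. Fold changes are given on a log2 scale.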

volasertib = compound: CC[C@@H]1C(=O)N(C)c2cnc(Nc3ccc(C(=O)N[C@H]4CC[C@H](N5CCN(CC6CC6)CC5)CC4)cc3OC)nc2N1C(C)C [volasertib]
Method in brief: as §1

[2] = compound: CC[C@H](C)N1C=C(C2=C(C=C(C=C21)C3=CN=C(C=C3)N4CCNCC4)C(=O)NCC5=C(C=C(NC5=O)C)C)C
Method in brief: as §1

epoxomicin = compound: CC[C@H](C)[C@@H](C(=O)N[C@@H]([C@@H](C)O)C(=O)N[C@@H](CC(C)C)C(=O)[C@]1(CO1)C)NC(=O)[C@H]([C@@H](C)CC)N(C)C(=O)C [epoxomicin]
Method in brief: as §1

[3] = compound: CCn1cc(-c2ccnc3[nH]c(-c4cccc(CN(C)C)c4)cc23)c(-c2ccc(NC(=O)N(C)C)cc2)n1
Method in brief: as §1

[4] = compound: CN(C)CC(=O)Nc1ccc2[nH]c(=O)c3ccccc3c2c1
Method in brief: as §1

[5] = compound: CN1C2=C(C3=C1C(=O)N(N=C3)CC4=CC(=CC=C4)N)SC(=C2)S(=O)C
Method in brief: as §1

[6] = compound: CN1CCC(CNc2ccc3ncc(-c4cccc(OC(F)(F)F)c4)n3n2)CC1
Method in brief: as §1

saracatinib = compound: CN1CCN(CCOc2cc(OC3CCOCC3)c3c(Nc4c(Cl)ccc5c4OCO5)ncnc3c2)CC1 [saracatinib]
Method in brief: as §1

sotrastaurin = compound: CN1CCN(c2nc(C3=C(c4c[nH]c5ccccc45)C(=O)NC3=O)c3ccccc3n2)CC1 [sotrastaurin]
Method in brief: as §1

Tubastatin A = compound: CN1CCc2c(c3ccccc3n2Cc2ccc(C(=O)NO)cc2)C1 [Tubastatin A]
Method in brief: as §1

[7] = compound: CNC(=O)C1=CC=CC=C1NC2=NC(=NC=C2Cl)NC3=C(C=C(C=C3)N4CCOCC4)OC
Method in brief: as §1

defactinib = compound: CNC(=O)c1ccc(Nc2ncc(C(F)(F)F)c(NCc3nccnc3N(C)S(C)(=O)=O)n2)cc1 [defactinib]
Method in brief: as §1

rucaparib = compound: CNCc1ccc(-c2[nH]c3cc(F)cc4c3c2CCNC4=O)cc1 [rucaparib]
Method in brief: as §1

[8] = compound: CNc1nc(-c2ccc3c(N)n[nH]c3c2)cc(N2C[C@@H](C(=O)NC3CCCCC3)CC[C@H]2C)n1
Method in brief: as §1

encorafenib = compound: COC(=O)N[C@@H](C)CNc1nccc(-c2cn(C(C)C)nc2-c2cc(Cl)cc(NS(C)(=O)=O)c2F)n1 [encorafenib]
Method in brief: as §1

[9] = compound: COC(=O)[C@H](CCSC)NC(=O)C1=C(C=C(C=C1)NC[C@H](CS)N)C2=CC=CC=C2
Method in brief: as §1

[10] = compound: CCn1c(C(=O)N(C2CC2)C2CC2)cc2c3c(ncn3C)c(Nc3cc(C)n(C)n3)nc21
Method in brief: as §1

rosiglitazone = compound: CN(CCOC1=CC=C(C=C1)C[C@H]2C(=O)NC(=O)S2)C3=CC=CC=N3 (racemic) [rosiglitazone]
Method in brief: as §1

alvocidib = compound: CN1CC[C@H](c2c(O)cc(O)c3c(=O)cc(-c4ccccc4Cl)oc23)[C@H](O)C1 [alvocidib]
Method in brief: as §1

Measured: log2 fold change

FLNA (UniProt P21333)
active: volasertib -0.375
inactive: [1] -0.121 | [2] 0.078 | epoxomicin 0.063 | [3] -0.004 | [4] 0.029 | [5] 0.052 | [6] -0.12 | saracatinib -0.076 | sotrastaurin -0.161 | Tubastatin A 0.052 | [7] 0.106 | defactinib -0.042 | rucaparib 0.1 | [8] 0.017 | encorafenib 0.089 | [9] -0.053

FASTKD2 (UniProt Q9NYY8)
inactive: [1] -0.037 | volasertib -0.108 | [2] 0.022 | epoxomicin 0.012 | [10] 0.007 | [3] -0.032 | [4] 0.032 | rosiglitazone 0.06 | [5] -0.047 | [6] -0.047 | saracatinib -0.008 | sotrastaurin -0.002 | alvocidib -0.11 | Tubastatin A 0.037 | [7] -0.034 | defactinib -0.027 | rucaparib -0.031 | [8] 0.007 | encorafenib 0.006 | [9] 0.009

FBH1 isoform 2 (UniProt Q8NFZ0)
inactive: [1] 0.009 | volasertib -0.127 | [2] -0.009 | epoxomicin 0.182 | [10] 0.028 | [3] 0.09 | [4] 0.1 | rosiglitazone -0.068 | [6] -0.01 | sotrastaurin 0.085 | Tubastatin A 0.069 | [7] -0.07 | defactinib -0.088 | rucaparib -0.231 | encorafenib -0.015 | [9] -0.002

FAM50A (UniProt Q14320)
active: volasertib -0.258
inactive: [1] -0.158 | [2] 0.06 | epoxomicin 0.058 | [3] 0.053 | [4] 0.029 | [5] -0.07 | [6] -0.052 | saracatinib 0.11 | sotrastaurin -0.119 | Tubastatin A 0.029 | [7] 0.056 | defactinib -0.203 | rucaparib -0.027 | [8] 0.08 | encorafenib 0.055 | [9] -0.023

FGF2 (UniProt P09038)
inactive: [1] 0.042 | volasertib 0.024 | [2] -0.038 | epoxomicin -0.093 | [10] -0.051 | [3] -0.127 | [4] 0.031 | rosiglitazone -0.064 | [5] -0.076 | [6] 0.149 | saracatinib 0.09 | sotrastaurin 0.092 | alvocidib 0.034 | Tubastatin A 0.019 | [7] -0.093 | defactinib 0.024 | rucaparib 0.094 | [8] 0.015 | encorafenib -0.025 | [9] 0.034

FAM234A (UniProt Q9H0X4)
inactive: [1] -0.037 | volasertib 0.041 | [2] -0.02 | epoxomicin 0.031 | [10] -0.013 | [4] -0.042 | rosiglitazone 0.002 | [5] -0.123 | saracatinib -0.089 | sotrastaurin 0.039 | alvocidib -0.094 | Tubastatin A 0.04 | [7] -0.058 | defactinib 0.005 | rucaparib 0.054 | [8] -0.039 | encorafenib 0.003 | [9] 0.114

FBXO7 (UniProt Q9Y3I1)
active: [3] -0.295
inactive: [1] 0.079 | volasertib -0.198 | [2] 0.044 | epoxomicin -0.012 | [4] 0.029 | [5] -0.022 | [6] 0.003 | saracatinib -0.003 | sotrastaurin 0.052 | Tubastatin A 0.019 | [7] 0.012 | defactinib -0.025 | rucaparib 0.068 | [8] 0.028 | encorafenib -0.009 | [9] -0.029

FKBP15 (UniProt Q5T1M5)
inactive: [1] 0.043 | volasertib -0.201 | [2] 0.044 | epoxomicin 0.012 | [10] -0.114 | [3] -0.018 | [4] 0.026 | rosiglitazone 0.072 | [5] 0.091 | [6] -0.006 | saracatinib -0.024 | sotrastaurin -0.152 | alvocidib -0.058 | Tubastatin A 0.054 | [7] -0.111 | defactinib -0.035 | rucaparib 0.018 | [8] 0.089 | encorafenib 0.045 | [9] -0.062

FBXO5 (UniProt Q9UKT4)
inactive: [1] -0.005 | volasertib -0.145 | [2] -0.004 | epoxomicin 0.154 | [10] 0 | [3] -0.063 | [4] -0.045 | rosiglitazone 0.046 | [5] -0.016 | [6] -0.031 | saracatinib 0.099 | sotrastaurin -0.022 | alvocidib -0.063 | Tubastatin A 0.105 | [7] 0.011 | defactinib -0.027 | rucaparib -0.044 | [8] -0.028 | encorafenib 0.013 | [9] 0.063

FKBP1A (UniProt P62942)
inactive: [1] -0.008 | volasertib -0.006 | [2] 0.054 | epoxomicin 0.008 | [10] -0.187 | [3] -0.209 | [4] 0.065 | rosiglitazone 0.061 | [5] -0.158 | [6] -0.064 | saracatinib -0.033 | sotrastaurin 0.044 | alvocidib -0.243 | Tubastatin A 0.087 | [7] -0.005 | defactinib -0.057 | rucaparib 0.036 | [8] 0.049 | encorafenib -0.016 | [9] -0.113

Quoted from above (two entries):
FLNA (UniProt P21333)
active: volasertib -0.375
inactive: [1] -0.121 | [2] 0.078 | epoxomicin 0.063 | [3] -0.004 | [4] 0.029 | [5] 0.052 | [6] -0.12 | saracatinib -0.076 | sotrastaurin -0.161 | Tubastatin A 0.052 | [7] 0.106 | defactinib -0.042 | rucaparib 0.1 | [8] 0.017 | encorafenib 0.089 | [9] -0.053

FASTKD2 (UniProt Q9NYY8)
inactive: [1] -0.037 | volasertib -0.108 | [2] 0.022 | epoxomicin 0.012 | [10] 0.007 | [3] -0.032 | [4] 0.032 | rosiglitazone 0.06 | [5] -0.047 | [6] -0.047 | saracatinib -0.008 | sotrastaurin -0.002 | alvocidib -0.11 | Tubastatin A 0.037 | [7] -0.034 | defactinib -0.027 | rucaparib -0.031 | [8] 0.007 | encorafenib 0.006 | [9] 0.009

Next entries follow.

FBXO30 (UniProt Q8TB52)
inactive: [1] -0.071 | volasertib -0.159 | [2] 0.053 | epoxomicin 0.027 | [10] -0.017 | [3] -0.065 | [4] -0.003 | rosiglitazone 0.023 | [5] 0.02 | [6] -0.064 | saracatinib 0.01 | sotrastaurin -0.029 | alvocidib -0.099 | Tubastatin A 0.031 | [7] -0.014 | defactinib -0.019 | rucaparib -0.008 | [8] -0.065 | encorafenib 0.017 | [9] -0.012

FN3KRP (UniProt Q9HA64)
inactive: [1] 0.009 | volasertib 0.073 | [2] -0.014 | epoxomicin -0.062 | [10] 0.032 | [3] -0.016 | [4] -0.017 | rosiglitazone -0.003 | [5] -0.057 | [6] 0.006 | saracatinib 0.028 | sotrastaurin 0.026 | alvocidib -0.006 | Tubastatin A -0.013 | [7] -0.024 | defactinib -0.021 | rucaparib -0.03 | [8] 0.013 | encorafenib -0.017 | [9] 0.045

FARS2 (UniProt O95363)
active: [6] -0.319
inactive: [1] 0.01 | volasertib -0.172 | [2] 0.109 | epoxomicin -0.034 | [3] -0.052 | [4] -0.036 | [5] -0.002 | saracatinib -0.026 | sotrastaurin -0.003 | Tubastatin A -0.045 | [7] 0.075 | defactinib -0.023 | rucaparib -0.026 | [8] 0.074 | encorafenib 0.026 | [9] -0.054

FCHO2 (UniProt Q0JRZ9)
inactive: [1] 0 | volasertib -0.05 | [2] 0.172 | epoxomicin 0.216 | [10] -0.027 | [3] -0.134 | [4] 0.01 | rosiglitazone 0.006 | [5] -0.028 | [6] -0.024 | saracatinib 0.081 | sotrastaurin -0.045 | alvocidib -0.171 | Tubastatin A 0.049 | [7] 0.051 | defactinib -0.05 | rucaparib -0.056 | [8] 0.069 | encorafenib -0.033 | [9] 0.04

FDXR isoform 7 (UniProt P22570)
inactive: [1] 0.052 | volasertib 0.003 | [2] 0.025 | epoxomicin 0.059 | [3] -0.144 | [4] 0.012 | [5] -0.097 | saracatinib -0.027 | sotrastaurin 0.116 | Tubastatin A -0.01 | [7] -0.012 | defactinib -0.115 | rucaparib -0.035 | [8] 0.034 | encorafenib -0.034 | [9] -0.023
active: [6] -0.387

FKBP3 (UniProt Q00688)
inactive: [1] 0.006 | volasertib 0.075 | [2] 0.03 | epoxomicin 0.037 | [3] -0.001 | [4] 0.001 | [5] -0.065 | [6] 0.015 | saracatinib -0.006 | sotrastaurin 0 | Tubastatin A 0.017 | [7] 0 | defactinib -0.024 | rucaparib -0.052 | [8] 0.01 | encorafenib 0.012 | [9] 0.033

FAR1 (UniProt Q8WVX9)
inactive: [1] -0.035 | volasertib -0.207 | [2] 0.017 | epoxomicin 0.07 | [10] 0.015 | [3] 0.037 | [4] 0.028 | rosiglitazone -0.011 | [5] -0.064 | [6] 0.1 | saracatinib -0.022 | sotrastaurin 0.045 | alvocidib -0.041 | Tubastatin A 0.022 | [7] -0.024 | defactinib -0.024 | rucaparib -0.07 | [8] -0.088 | encorafenib 0.016 | [9] -0.008
